Measured values taken from the supplement of paper PMC6078165.
The reference is the same well before dosing, and untreated signal decays as well.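 Fibroblast labels denote human fibroblasts, mainly primary ones from uterus (C12385, HUF), lung (H6013), bone (Hs27A), adrenal (HADF) and skin (WS1), plus mammary HMF and breast cancer-associated Hs343T. Cancer cells are basal-like or mesenchymal-like triple-negative breast cancer lines. A hit is a response shift exceeding 3x replicate standard deviation. The tissue of the other fibroblasts is not given here.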

Tested on: Hs578T
Experiment: relative JC-1 red fluorescence (viability) vs pre-drug, coculture with fibroblast (fraction); higher = more viable cancer cells
Experimental: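 JC-1 labelled TNBC cells cocultured 1:1 (1,500 cells each) with CellTrace Violet stained primary or stromal fibroblasts in 384-well plates in FluoroBrite medium, treated with one of 42 anticancer drugs at 0.1, 1, 10 or 100 uM. JC-1 red fluorescence (mitochondrial integrity in cancer cells only) was read by plate reader every 8 h for 72 h. Values are normalised to each well's pre-drug value. The stock of one drug was tenfold lower, so its dose labels may be too high.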

O=C(O)CCCc1ccc(N(CCCl)CCCl)cc1 [Chlorambucil]
relative JC-1 red fluorescence
Conditions	8 h	16 h	24 h	32 h	40 h	48 h	56 h	64 h	72 h
0.1 µM	0.891	0.81	0.7498	0.714	0.648	0.607	0.58	0.544	0.53
1 µM	0.89	0.809	0.7371	0.709	0.642	0.594	0.561	0.517	0.495
10 µM	0.892	0.818	0.76	0.718	0.646	0.611	0.574	0.528	0.517
100 µM	0.92683	0.822	0.72	0.666	0.602	0.548	0.509	0.461	0.439

relative JC-1 red fluorescence
Conditions	8 h	16 h	24 h	32 h	40 h	48 h	56 h	64 h	72 h
0.1 µM, coculture fibroblast: C12385	0.801	0.738	0.711	0.621	0.567	0.549	0.524	0.52	0.527
0.1 µM, coculture fibroblast: H6013	0.84	0.813	0.804	0.795	0.7842	0.796	0.799	0.81	0.792
0.1 µM, coculture fibroblast: H6019	0.7706	0.6757	0.6648	0.576	0.548	0.538	0.518	0.515	0.5
0.1 µM, coculture fibroblast: H6076	0.914	0.853	0.791	0.761	0.719	0.716	0.7041	0.703	0.7018
0.1 µM, coculture fibroblast: H6231	0.865	0.773	0.7025	0.6563	0.585	0.5586	0.5117	0.5027	0.4915
0.1 µM, coculture fibroblast: HADF	0.889	0.8279	0.764	0.717	0.682	0.663	0.641	0.639	0.624
0.1 µM, coculture fibroblast: HCFa	0.807	0.758	0.729	0.698	0.663	0.667	0.655	0.648	0.626
0.1 µM, coculture fibroblast: HCPF	0.9076	0.813	0.7489	0.71	0.654	0.624	0.605	0.5693	0.5506
0.1 µM, coculture fibroblast: HHSteC	0.872	0.827	0.8	0.756	0.717	0.682	0.666	0.646	0.623
0.1 µM, coculture fibroblast: HMF	0.8296	0.76	0.6897	0.6611	0.611	0.584	0.553	0.534	0.532
0.1 µM, coculture fibroblast: HPFa	0.8549	0.794	0.743	0.703	0.68	0.661	0.633	0.614	0.573
0.1 µM, coculture fibroblast: HUF	0.841	0.725	0.6962	0.5925	0.5382	0.50642	0.4784	0.466	0.458
0.1 µM, coculture fibroblast: Hs27A	0.878	0.836	0.8	0.76	0.71	0.705	0.678	0.683	0.648
0.1 µM, coculture fibroblast: Hs343T	0.8939	0.776	0.69	0.651	0.568	0.524	0.482	0.464	0.458
0.1 µM, coculture fibroblast: WS1	0.796	0.729	0.723	0.6227	0.5694	0.558	0.533	0.536	0.542
1 µM, coculture fibroblast: C12385	0.83634	0.723	0.634	0.544	0.463	0.422	0.39	0.374	0.363
1 µM, coculture fibroblast: H6013	0.9139	0.863	0.82	0.785	0.75	0.739	0.711	0.706	0.675
1 µM, coculture fibroblast: H6019	0.774	0.683	0.6527	0.5572	0.515	0.49	0.451	0.43219	0.4018
1 µM, coculture fibroblast: H6076	0.911	0.831	0.785	0.766	0.729	0.732	0.715	0.712	0.71
1 µM, coculture fibroblast: H6231	0.8914	0.7961	0.712	0.6742	0.6053	0.5713	0.518	0.489	0.467
1 µM, coculture fibroblast: HADF	0.9024	0.829	0.762	0.703	0.639	0.611	0.578	0.561	0.534
1 µM, coculture fibroblast: HCFa	0.865	0.774	0.724	0.664	0.6	0.575	0.537	0.516	0.471
1 µM, coculture fibroblast: HCPF	0.9284	0.839	0.7803	0.7318	0.6685	0.6454	0.6253	0.585	0.5625
1 µM, coculture fibroblast: HHSteC	0.872	0.791	0.703	0.639	0.566	0.528	0.498	0.471	0.432
1 µM, coculture fibroblast: HMF	0.8951	0.7911	0.704	0.676	0.618	0.59	0.55	0.521	0.502
1 µM, coculture fibroblast: HPFa	0.942	0.8779	0.769	0.705	0.644	0.598	0.546	0.516	0.467
1 µM, coculture fibroblast: HUF	0.8648	0.775	0.692	0.593	0.53	0.487	0.446	0.437	0.425
1 µM, coculture fibroblast: Hs27A	0.883	0.834	0.793	0.75	0.706	0.696	0.658	0.65	0.609
1 µM, coculture fibroblast: Hs343T	0.892	0.774	0.692	0.67	0.609	0.582	0.533	0.513	0.51
1 µM, coculture fibroblast: WS1	0.802	0.6941	0.626	0.54	0.477	0.456	0.42	0.411	0.405
10 µM, coculture fibroblast: C12385	0.786	0.721	0.685	0.594	0.532	0.497	0.466	0.448	0.439
10 µM, coculture fibroblast: H6013	0.826	0.768	0.709	0.669	0.627	0.603	0.584	0.57	0.539
10 µM, coculture fibroblast: H6019	0.787	0.702	0.6657	0.5683	0.525	0.507	0.475	0.461	0.439
10 µM, coculture fibroblast: H6076	0.9	0.84	0.785	0.768	0.723	0.7162	0.6982	0.688	0.687
10 µM, coculture fibroblast: H6231	0.862	0.773	0.727	0.693	0.637	0.615	0.574	0.557	0.544
10 µM, coculture fibroblast: HADF	0.847	0.754	0.677	0.615	0.56	0.537	0.505	0.486	0.453
10 µM, coculture fibroblast: HCFa	0.813	0.72558	0.667	0.619	0.555	0.532	0.506	0.499	0.476
10 µM, coculture fibroblast: HCPF	0.89	0.829	0.773	0.7406	0.681	0.652	0.624	0.581	0.548
10 µM, coculture fibroblast: HHSteC	0.844	0.787	0.736	0.674	0.62996	0.595	0.577	0.559	0.537
10 µM, coculture fibroblast: HMF	0.896	0.819	0.735	0.697	0.627	0.59	0.548	0.515	0.496
10 µM, coculture fibroblast: HPFa	0.878	0.794	0.741	0.694	0.656	0.628	0.605	0.587	0.549
10 µM, coculture fibroblast: HUF	0.8331	0.7212	0.7	0.598	0.545	0.512	0.48	0.469	0.457
10 µM, coculture fibroblast: Hs27A	0.924	0.843	0.8	0.745	0.685	0.663	0.619	0.61	0.558
10 µM, coculture fibroblast: Hs343T	0.92	0.8092	0.716	0.676	0.593	0.554	0.501	0.474	0.457
10 µM, coculture fibroblast: WS1	0.805	0.706	0.659	0.576	0.52	0.492	0.45	0.434	0.419
100 µM, coculture fibroblast: C12385	0.836	0.724	0.639	0.528	0.46	0.421	0.374	0.346	0.331
100 µM, coculture fibroblast: H6013	0.897	0.8455	0.779	0.755	0.721	0.712	0.692	0.685	0.655
100 µM, coculture fibroblast: H6019	0.796	0.694	0.655	0.559	0.51	0.475	0.44	0.421	0.392
100 µM, coculture fibroblast: H6076	0.913	0.836	0.7765	0.758	0.725	0.709	0.673	0.664	0.653
100 µM, coculture fibroblast: H6231	0.898	0.813	0.73773	0.7	0.636	0.597	0.55	0.517	0.493
100 µM, coculture fibroblast: HADF	0.8994	0.811	0.755	0.708	0.654	0.615	0.569	0.538	0.495
100 µM, coculture fibroblast: HCFa	0.891	0.816	0.751	0.695	0.635	0.615	0.583	0.57	0.529
100 µM, coculture fibroblast: HCPF	0.9086	0.8313	0.7574	0.7117	0.6467	0.613	0.5746	0.5179	0.4762
100 µM, coculture fibroblast: HHSteC	0.92	0.827	0.746	0.69	0.627	0.589	0.554	0.529	0.491
100 µM, coculture fibroblast: HMF	0.942	0.868	0.789	0.7469	0.6893	0.652	0.595	0.554	0.519
100 µM, coculture fibroblast: HPFa	0.928	0.8474	0.749	0.673	0.614	0.57	0.523	0.488	0.4427
100 µM, coculture fibroblast: HUF	0.867	0.74	0.697	0.583	0.515	0.471	0.43	0.403	0.386
100 µM, coculture fibroblast: Hs27A	0.89935	0.8686	0.809	0.77	0.721	0.711	0.676	0.663	0.608
100 µM, coculture fibroblast: Hs343T	0.9544	0.861	0.7586	0.727	0.648	0.606	0.531	0.483	0.443
100 µM, coculture fibroblast: WS1	0.8301	0.737	0.671	0.565	0.496	0.463	0.419	0.396	0.372
